PubChem BioAssay AID1224826, NIAID | 2016
The whole screen tested about 17,000 reagents; this is an unselected part. Over the whole deposit, about 1,110 (6.6%) are marked active. 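Active means lowered or raised reporter signal; replicate intensities are raw and not normalised per plate.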 Further read-outs or replicates are left out here.

Screen: 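Regulators of Tlr4 signalling leading to Tnf-alpha expression in macrophages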 (primary screen)
Cell system: RAW264.7 G9 macrophages from mouse bearing reporters for p65 (GFP) and the Tnf promoter (mCherry)
Reagent: siRNA pool against mouse genes, 100 nM
Timing: 16 h of LPS stimulation, after 2 days of siRNA transfection
Treatment: bacterial lipopolysaccharide (Salmonella minnesota R595), 10 ng/ml
Measurement: 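Nuclear mCherry signal of the Tnf promoter reporter measured by imaging after background removal, scaled to each plate median and turned into robust z-scores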
Direction: Tnf reporter robust z-score: higher = stronger Tnf promoter reporter signal after LPS
Rule for the call: 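a well counts as active at a score of -1.3 or below (Tlr4 knock-down control median) or above 3 (raised signal); controls and wells holding fewer than 50 cells are excluded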
Meaning of the calls: active = Tnf reporter clearly lowered or raised; inactive = no clear change in Tnf reporter

target | Tnf reporter robust z-score | fewer than 50 cells in well | call
Nsd1 | -0.38 | enough cells in well | inactive
Gba2 | -0.28 | enough cells in well | inactive
Mthfr | -1.08 | enough cells in well | inactive
Zfp955a | 1.69 | enough cells in well | inactive
Arg1 | – | fewer than 50 cells per well; well left out of calls | inactive
Ncs1 | 0.57 | enough cells in well | inactive
Anxa13 | -0.36 | enough cells in well | inactive
Wnt2 | -0.42 | enough cells in well | inactive
Synj2 | -0.61 | enough cells in well | inactive
Zfp92 | 0.22 | enough cells in well | inactive
Rybp | -0.41 | enough cells in well | inactive
Rsad2 | 0.29 | enough cells in well | inactive
Tm2d3 | 1.62 | enough cells in well | inactive
Zfp27 | -0.42 | enough cells in well | inactive
Glb1 | -0.35 | enough cells in well | inactive
Cstf2t | 0.9 | enough cells in well | inactive
Dlk2 | 0.01 | enough cells in well | inactive
Cd247 | 0.27 | enough cells in well | inactive
Sox6 | – | fewer than 50 cells per well; well left out of calls | inactive
Tsr1 | 0.76 | enough cells in well | inactive
Rbm43 | -0.11 | enough cells in well | inactive
Ralgps2 | -0.78 | enough cells in well | inactive
Hsd3b7 | -0.36 | enough cells in well | inactive
Oasl2 | -0.8 | enough cells in well | inactive
Ppig | 0.05 | enough cells in well | inactive
Defa3 | 0.39 | enough cells in well | inactive
Wdcp | -1.75 | enough cells in well | active
Ube2i | 0.03 | enough cells in well | inactive
Slfn3 | – | fewer than 50 cells per well; well left out of calls | inactive
Selenop | -0.3 | enough cells in well | inactive
AU014748 | -0.27 | enough cells in well | inactive
A930018M24Rik | -0.24 | enough cells in well | inactive
Dok1 | -0.84 | enough cells in well | inactive
Rhd | 0.47 | enough cells in well | inactive
Zfp108 | – | fewer than 50 cells per well; well left out of calls | inactive
Thap4 | -0.03 | enough cells in well | inactive
Wdr27 | -0.96 | enough cells in well | inactive
Klb | -0.64 | enough cells in well | inactive
Utp3 | -0.37 | enough cells in well | inactive
Pla2g4e | 1.2 | enough cells in well | inactive
Nktr | -0.98 | enough cells in well | inactive
Cipc | – | fewer than 50 cells per well; well left out of calls | inactive
Ell | 0 | enough cells in well | inactive
Frey1 | 7.1 | enough cells in well | active
Or52p2 | – | fewer than 50 cells per well; well left out of calls | inactive
Caml | -0.74 | enough cells in well | inactive
Itpkc | -0.73 | enough cells in well | inactive
Cacna1f | -0.93 | enough cells in well | inactive
Dcaf15 | – | fewer than 50 cells per well; well left out of calls | inactive
Ccdc121 | 1.35 | enough cells in well | inactive
Syt8 | – | fewer than 50 cells per well; well left out of calls | inactive
Kansl2 | – | fewer than 50 cells per well; well left out of calls | inactive
Tmbim1 | – | fewer than 50 cells per well; well left out of calls | inactive
Nabp1 | -1.1 | enough cells in well | inactive
Slc29a1 | -0.31 | enough cells in well | inactive
Gstt4 | – | fewer than 50 cells per well; well left out of calls | inactive
Or4p8 | -0.52 | enough cells in well | inactive
Nod1 | -0.09 | enough cells in well | inactive

Called active (from the list above):
target | Tnf reporter robust z-score | fewer than 50 cells in well | call
Wdcp | -1.75 | enough cells in well | active
Frey1 | 7.1 | enough cells in well | active
